Results from the supplement of paper PMC12067093, “Discovery and optimisation of a covalent ligand for TRIM25 and its application to targeted protein ubiquitination” (Chemical Science, 2025).
The list shows a part of the results.

Chains of the proteins cited; added tags and fusions are not shown. Lines headed by an entry give the natural chain unless they say otherwise; changes in a name come on top.
UniProt O43681: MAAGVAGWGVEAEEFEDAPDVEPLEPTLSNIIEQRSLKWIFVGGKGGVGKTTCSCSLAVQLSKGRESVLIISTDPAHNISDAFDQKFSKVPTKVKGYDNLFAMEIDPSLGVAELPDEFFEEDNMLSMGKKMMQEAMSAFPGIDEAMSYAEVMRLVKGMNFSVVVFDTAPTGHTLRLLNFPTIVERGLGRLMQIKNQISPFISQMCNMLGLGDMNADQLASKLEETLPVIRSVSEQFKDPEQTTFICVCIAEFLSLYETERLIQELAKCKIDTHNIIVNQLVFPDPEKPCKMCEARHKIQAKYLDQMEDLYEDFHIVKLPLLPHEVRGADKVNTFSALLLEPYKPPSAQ
UniProt P25705: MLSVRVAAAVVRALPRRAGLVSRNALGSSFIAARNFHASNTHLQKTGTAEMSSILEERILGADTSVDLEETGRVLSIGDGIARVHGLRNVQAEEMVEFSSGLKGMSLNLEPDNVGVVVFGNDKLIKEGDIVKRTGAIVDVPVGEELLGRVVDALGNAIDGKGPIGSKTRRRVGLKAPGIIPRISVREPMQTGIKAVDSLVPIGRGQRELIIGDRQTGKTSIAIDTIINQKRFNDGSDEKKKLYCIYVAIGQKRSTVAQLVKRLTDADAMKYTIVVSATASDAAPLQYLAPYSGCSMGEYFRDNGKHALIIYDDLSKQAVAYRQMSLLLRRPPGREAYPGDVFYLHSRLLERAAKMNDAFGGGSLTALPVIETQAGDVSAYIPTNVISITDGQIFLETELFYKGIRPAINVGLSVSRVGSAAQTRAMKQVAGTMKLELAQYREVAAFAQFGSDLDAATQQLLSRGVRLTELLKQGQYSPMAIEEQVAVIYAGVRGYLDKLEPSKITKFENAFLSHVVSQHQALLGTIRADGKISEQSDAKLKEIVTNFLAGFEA
UniProt Q8NB49: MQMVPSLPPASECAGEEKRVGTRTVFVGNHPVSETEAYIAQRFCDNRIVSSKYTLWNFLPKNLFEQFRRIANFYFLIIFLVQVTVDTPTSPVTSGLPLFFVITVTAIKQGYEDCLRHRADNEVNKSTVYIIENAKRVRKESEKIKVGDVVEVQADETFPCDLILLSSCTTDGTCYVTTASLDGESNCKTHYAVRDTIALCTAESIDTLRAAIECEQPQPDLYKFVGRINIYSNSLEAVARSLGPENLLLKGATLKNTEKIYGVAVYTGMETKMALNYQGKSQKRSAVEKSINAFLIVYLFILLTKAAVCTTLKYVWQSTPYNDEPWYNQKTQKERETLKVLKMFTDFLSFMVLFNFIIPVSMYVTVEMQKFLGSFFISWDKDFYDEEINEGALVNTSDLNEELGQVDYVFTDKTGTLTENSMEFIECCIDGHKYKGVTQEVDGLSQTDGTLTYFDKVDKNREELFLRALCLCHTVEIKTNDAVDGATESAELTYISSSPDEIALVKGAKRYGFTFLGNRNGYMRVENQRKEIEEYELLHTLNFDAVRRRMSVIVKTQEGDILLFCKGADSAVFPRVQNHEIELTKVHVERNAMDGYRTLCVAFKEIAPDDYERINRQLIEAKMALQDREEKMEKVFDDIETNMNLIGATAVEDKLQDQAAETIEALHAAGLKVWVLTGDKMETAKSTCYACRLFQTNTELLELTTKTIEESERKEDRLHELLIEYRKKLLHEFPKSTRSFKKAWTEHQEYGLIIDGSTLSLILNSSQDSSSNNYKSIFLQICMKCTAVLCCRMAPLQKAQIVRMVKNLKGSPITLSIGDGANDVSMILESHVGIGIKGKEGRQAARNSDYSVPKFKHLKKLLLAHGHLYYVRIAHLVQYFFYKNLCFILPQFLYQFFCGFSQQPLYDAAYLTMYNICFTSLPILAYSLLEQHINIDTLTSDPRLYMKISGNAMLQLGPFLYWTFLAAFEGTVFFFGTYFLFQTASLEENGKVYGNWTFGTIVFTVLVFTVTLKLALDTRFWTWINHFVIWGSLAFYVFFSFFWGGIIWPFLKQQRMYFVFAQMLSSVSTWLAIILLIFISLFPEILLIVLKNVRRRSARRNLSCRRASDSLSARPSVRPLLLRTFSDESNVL
UniProt Q9BZE9, whole entry, looked up: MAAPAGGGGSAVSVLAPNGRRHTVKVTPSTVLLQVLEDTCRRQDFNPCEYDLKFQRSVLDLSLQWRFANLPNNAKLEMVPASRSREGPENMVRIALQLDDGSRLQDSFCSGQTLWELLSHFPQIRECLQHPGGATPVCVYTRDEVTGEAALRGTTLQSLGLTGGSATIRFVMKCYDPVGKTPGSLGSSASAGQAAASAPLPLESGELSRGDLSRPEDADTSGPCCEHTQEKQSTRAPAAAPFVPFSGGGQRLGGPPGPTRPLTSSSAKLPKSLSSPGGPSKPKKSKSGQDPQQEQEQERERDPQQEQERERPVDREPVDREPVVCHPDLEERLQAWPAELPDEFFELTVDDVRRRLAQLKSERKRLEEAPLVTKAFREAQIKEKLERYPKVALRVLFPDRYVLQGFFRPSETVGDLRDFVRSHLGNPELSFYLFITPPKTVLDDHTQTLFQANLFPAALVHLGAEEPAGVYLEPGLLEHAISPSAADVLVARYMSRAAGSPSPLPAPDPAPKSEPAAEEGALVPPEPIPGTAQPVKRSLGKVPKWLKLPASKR
UniProt Q9ULH1: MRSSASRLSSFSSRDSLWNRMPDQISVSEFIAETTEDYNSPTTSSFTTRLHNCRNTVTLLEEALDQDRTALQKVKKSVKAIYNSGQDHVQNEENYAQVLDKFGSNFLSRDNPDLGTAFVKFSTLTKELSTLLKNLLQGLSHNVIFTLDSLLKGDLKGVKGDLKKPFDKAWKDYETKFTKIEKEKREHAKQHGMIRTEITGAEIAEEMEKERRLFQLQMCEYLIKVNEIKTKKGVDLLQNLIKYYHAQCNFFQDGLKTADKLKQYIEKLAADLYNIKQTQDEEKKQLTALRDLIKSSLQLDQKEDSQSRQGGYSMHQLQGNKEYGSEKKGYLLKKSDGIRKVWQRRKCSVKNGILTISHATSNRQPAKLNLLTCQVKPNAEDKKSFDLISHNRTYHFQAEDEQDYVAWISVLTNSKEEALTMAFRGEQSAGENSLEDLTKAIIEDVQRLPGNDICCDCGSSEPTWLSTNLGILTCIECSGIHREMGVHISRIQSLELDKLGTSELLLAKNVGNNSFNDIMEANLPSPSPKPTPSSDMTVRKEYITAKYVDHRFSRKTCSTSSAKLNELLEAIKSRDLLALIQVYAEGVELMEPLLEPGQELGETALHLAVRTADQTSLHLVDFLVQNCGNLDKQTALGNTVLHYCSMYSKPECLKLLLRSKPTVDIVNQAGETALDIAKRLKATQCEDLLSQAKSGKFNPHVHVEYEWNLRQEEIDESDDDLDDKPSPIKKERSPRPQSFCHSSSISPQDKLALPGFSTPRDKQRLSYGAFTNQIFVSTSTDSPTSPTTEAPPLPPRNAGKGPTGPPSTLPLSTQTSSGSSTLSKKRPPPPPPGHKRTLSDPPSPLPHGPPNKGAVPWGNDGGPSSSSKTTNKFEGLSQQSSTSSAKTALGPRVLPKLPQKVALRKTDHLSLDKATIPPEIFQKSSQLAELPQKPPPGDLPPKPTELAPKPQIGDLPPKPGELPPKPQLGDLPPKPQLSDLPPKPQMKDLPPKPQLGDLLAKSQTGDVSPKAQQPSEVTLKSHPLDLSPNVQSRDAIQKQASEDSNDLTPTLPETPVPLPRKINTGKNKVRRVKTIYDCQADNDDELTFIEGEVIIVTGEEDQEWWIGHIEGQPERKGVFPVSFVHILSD
UniProt P15848: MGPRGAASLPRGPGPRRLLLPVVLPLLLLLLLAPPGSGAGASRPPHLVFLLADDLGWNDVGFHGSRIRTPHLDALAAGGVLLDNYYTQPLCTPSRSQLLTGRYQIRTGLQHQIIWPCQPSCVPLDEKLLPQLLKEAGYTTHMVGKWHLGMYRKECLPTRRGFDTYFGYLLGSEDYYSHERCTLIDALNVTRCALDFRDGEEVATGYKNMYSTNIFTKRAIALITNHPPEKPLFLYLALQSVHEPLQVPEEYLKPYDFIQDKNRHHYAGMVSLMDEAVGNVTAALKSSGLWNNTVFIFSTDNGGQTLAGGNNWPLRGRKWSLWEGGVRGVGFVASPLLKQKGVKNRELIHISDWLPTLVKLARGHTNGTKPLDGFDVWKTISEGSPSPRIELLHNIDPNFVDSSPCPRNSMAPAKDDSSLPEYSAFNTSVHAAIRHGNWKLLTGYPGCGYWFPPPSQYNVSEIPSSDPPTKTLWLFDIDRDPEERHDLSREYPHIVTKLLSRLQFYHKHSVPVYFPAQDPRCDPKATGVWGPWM
UniProt Q9ULI0: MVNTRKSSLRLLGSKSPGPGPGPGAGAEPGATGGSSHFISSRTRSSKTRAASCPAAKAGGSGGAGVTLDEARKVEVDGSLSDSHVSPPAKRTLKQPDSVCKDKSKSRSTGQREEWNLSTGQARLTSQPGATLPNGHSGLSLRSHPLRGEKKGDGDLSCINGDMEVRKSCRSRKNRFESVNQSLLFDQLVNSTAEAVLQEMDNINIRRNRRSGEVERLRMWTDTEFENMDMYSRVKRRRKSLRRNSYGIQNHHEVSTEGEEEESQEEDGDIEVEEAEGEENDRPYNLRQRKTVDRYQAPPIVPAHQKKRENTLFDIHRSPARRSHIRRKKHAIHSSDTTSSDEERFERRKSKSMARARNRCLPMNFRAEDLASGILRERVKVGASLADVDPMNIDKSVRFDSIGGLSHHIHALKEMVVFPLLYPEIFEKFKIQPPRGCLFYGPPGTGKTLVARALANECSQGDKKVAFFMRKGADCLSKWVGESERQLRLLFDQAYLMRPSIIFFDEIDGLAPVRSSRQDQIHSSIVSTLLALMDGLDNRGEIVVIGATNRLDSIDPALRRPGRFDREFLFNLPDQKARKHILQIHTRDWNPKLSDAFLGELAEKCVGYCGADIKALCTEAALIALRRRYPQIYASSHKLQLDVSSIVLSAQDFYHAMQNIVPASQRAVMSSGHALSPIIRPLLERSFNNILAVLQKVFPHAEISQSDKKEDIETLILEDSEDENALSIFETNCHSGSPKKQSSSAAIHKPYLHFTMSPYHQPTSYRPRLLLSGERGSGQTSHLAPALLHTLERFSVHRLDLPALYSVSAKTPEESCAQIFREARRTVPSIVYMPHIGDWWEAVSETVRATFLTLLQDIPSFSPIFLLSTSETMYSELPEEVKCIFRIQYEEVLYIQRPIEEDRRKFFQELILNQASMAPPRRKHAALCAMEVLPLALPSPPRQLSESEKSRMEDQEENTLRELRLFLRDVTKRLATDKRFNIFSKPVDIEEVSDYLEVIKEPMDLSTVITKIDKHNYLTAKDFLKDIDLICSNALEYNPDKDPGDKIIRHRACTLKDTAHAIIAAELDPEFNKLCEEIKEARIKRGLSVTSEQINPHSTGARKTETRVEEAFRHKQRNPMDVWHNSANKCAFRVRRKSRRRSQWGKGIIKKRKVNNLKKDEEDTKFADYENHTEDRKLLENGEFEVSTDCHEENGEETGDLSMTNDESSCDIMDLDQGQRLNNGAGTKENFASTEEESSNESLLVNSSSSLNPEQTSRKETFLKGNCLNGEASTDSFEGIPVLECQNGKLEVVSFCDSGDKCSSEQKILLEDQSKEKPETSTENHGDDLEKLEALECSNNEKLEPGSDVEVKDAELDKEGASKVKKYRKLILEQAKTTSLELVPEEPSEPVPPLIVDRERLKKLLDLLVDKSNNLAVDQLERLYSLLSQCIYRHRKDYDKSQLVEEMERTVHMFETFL
UniProt Q9UI12, whole entry, looked up: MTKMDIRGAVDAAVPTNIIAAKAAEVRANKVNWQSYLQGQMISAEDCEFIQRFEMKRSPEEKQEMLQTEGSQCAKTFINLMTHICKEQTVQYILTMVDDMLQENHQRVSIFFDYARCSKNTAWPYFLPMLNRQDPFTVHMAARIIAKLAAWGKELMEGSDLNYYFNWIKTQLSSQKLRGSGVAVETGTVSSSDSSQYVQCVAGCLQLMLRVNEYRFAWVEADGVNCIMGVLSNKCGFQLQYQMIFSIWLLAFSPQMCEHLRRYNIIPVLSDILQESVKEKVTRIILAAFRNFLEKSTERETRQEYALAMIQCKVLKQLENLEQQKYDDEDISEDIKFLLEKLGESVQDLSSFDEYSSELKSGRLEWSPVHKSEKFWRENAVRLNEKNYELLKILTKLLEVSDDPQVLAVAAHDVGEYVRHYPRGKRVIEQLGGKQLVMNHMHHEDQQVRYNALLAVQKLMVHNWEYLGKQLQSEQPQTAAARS

compound: Cc1cc(ccc1-c1ccccc1)C(=O)N1CCCN(CC1)C(=O)CCl [compound 10]; test: probe-labelled cysteine peptide fold change vs DMSO (competition) (log2 fold change); higher = less target engagement (more negative = stronger competition); details: 10 µM; THP-1; incubation time: 4 h
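Also: competitive profiling in live THP-1 cells: cysteine peptides tagged with an iodoacetamide desthiobiotin (IA-DTB) probe, intensity after compound treatment relative to DMSO-treated cells.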

Target	probe-labelled cysteine peptide fold change
ASNA1_O43681_53_TTCSCSLAVQLSK (UniProt O43681)	0.0248
ASNA1_O43681_55_TTCSCSLAVQLSK (UniProt O43681)	0.15
ATG2B_Q96BY7_1750_KSPGADVTCSLPR (UniProt Q96BY7)	-0.145
ATP5F1A_P25705_244_KLYCIYVAIGQK (UniProt P25705)	-1.08
ASMTL_O95671_274_AEAGEAGQATAEAECHR (UniProt O95671)	-0.203
ASNSD1_Q9NWL6_378_CEIPSEEFSK (UniProt Q9NWL6)	-0.287
ATP6V0A1_Q93050_310_AIYHTLNLCNIDVTQK (UniProt Q93050)	0.0069
ATP11C_Q8NB49_214_AAIECEQPQPDLYK (UniProt Q8NB49)	-0.0919
ATIC_P31939_363_KKNGNYCVLQMDQSYKPDENEVR (UniProt P31939)	0.168
ATP6V1B2_P21281_258_SDFEENGSMDNVCLFLNLANDPTIER (UniProt P21281)	0.0783
ASPSCR1_Q9BZE9_109_LQDSFCSGQTLWELLSHFPQIR (UniProt Q9BZE9)	0.0375
ASCC3_Q8N3C0_742_NCGHIPFFFPTQGHDYVLAEK (UniProt Q8N3C0)	0.0317
ASAP1_Q9ULH1_219_LFQLQMCEYLIK (UniProt Q9ULH1)	0.163
ASCC3_Q8N3C0_1343_AYEALYNFSHFNPVQTQIFHTLYHTDCNVLLGAPTGSGK (UniProt Q8N3C0)	0.133
ARSB_P15848_405_IELLHNIDPNFVDSSPCPR (UniProt P15848)	-0.0177
ATAD2B_Q9ULI0_53_AASCPAAK (UniProt Q9ULI0)	-0.0086
ATP2B1_P20020_463_HLDACETMGNATAICSDK (UniProt P20020)	0.0417
ATP6V1H_Q9UI12_73_QEMLQTEGSQCAK (UniProt Q9UI12)	-0.0481
ATG7_O95352_358_CLLLGAGTLGCNVAR (UniProt O95352)	-0.0777
ATP2A1_O14983_349_SLPSVETLGCTSVICSDK (UniProt O14983)	-0.0681
ASAP1_Q9ULH1_652_QTALGNTVLHYCSMYSKPECLK (UniProt Q9ULH1)	0.0891
ATRX_P46100_1575_LKPHQVDGVQFMWDCCCESVKK (UniProt P46100)	0.164
ATAD2_Q6PL18_484_ALANECSQGDKR (UniProt Q6PL18)	-0.164

same assay, conditions: 50 µM; THP-1; incubation time: 4 h

Target	probe-labelled cysteine peptide fold change
ATG16L1_Q676U5_145_IAECLQTISDLETECLDLR (UniProt Q676U5)	0.204
ATP2A2_P16615_364_TGTLTTNQMSVCR (UniProt P16615)	-0.0183
ATG7_O95352_358+368_CLLLGAGTLGCNVAR (UniProt O95352)	0.22
ATM_Q13315_2473_AVENYINCLLSGEEHDMWVFR (UniProt Q13315)	0.26
ATG2A_Q2TAZ0_698+715_SELSSGPGPPVPTHLELTCSDLHGIYEDGGKPPVPCLR (UniProt Q2TAZ0)	-0.0101
ATRX_P46100_1576_LKPHQVDGVQFMWDCCCESVK (UniProt P46100)	0.0331
ATP13A1_Q9HD20_971_LSSIQCICHVIK (UniProt Q9HD20)	-0.0512
ATAD2B_Q9ULI0_816_TPEESCAQIFR (UniProt Q9ULI0)	0.0836
ATP2A2_P16615_447_VGEATETALTCLVEK (UniProt P16615)	0.0403
ASNA1_O43681_289_IDTHNIIVNQLVFPDPEKPCK (UniProt O43681)	-0.0111
ATG16L1_Q676U5_506_TELLSCSR (UniProt Q676U5)	0.219
ATG7_O95352_368_CLLLGAGTLGCNVAR (UniProt O95352)	0.527
ASTE1_Q2TB18_640_QNTSCSK (UniProt Q2TB18)	-0.653
ATP11B_Q9Y2G3_170_LDGSCHVTTASLDGETNLK (UniProt Q9Y2G3)	-0.0326
ASH2L_Q9UBL3_581_SCTVSINFGPCFK (UniProt Q9UBL3)	0.0485
ATAD2_Q6PL18_1388_MEQEVENFSCSR (UniProt Q6PL18)	-0.0356
ASNA1_O43681_53_TTCSCSLAVQLSK (UniProt O43681)	-0.246
ASNA1_O43681_55_TTCSCSLAVQLSK (UniProt O43681)	-0.0955
ATG2B_Q96BY7_1750_KSPGADVTCSLPR (UniProt Q96BY7)	-0.627
ATP5F1A_P25705_244_KLYCIYVAIGQK (UniProt P25705)	0.236

Target	probe-labelled cysteine peptide fold change
ASMTL_O95671_274_AEAGEAGQATAEAECHR (UniProt O95671)	-0.275
ASNSD1_Q9NWL6_378_CEIPSEEFSK (UniProt Q9NWL6)	-0.0783
ATP6V0A1_Q93050_310_AIYHTLNLCNIDVTQK (UniProt Q93050)	0.378
ATP11C_Q8NB49_214_AAIECEQPQPDLYK (UniProt Q8NB49)	0.0245
ATIC_P31939_363_KKNGNYCVLQMDQSYKPDENEVR (UniProt P31939)	-0.0544
ATP6V1B2_P21281_258_SDFEENGSMDNVCLFLNLANDPTIER (UniProt P21281)	-0.174
ASPSCR1_Q9BZE9_109_LQDSFCSGQTLWELLSHFPQIR (UniProt Q9BZE9)	-0.373
ASCC3_Q8N3C0_742_NCGHIPFFFPTQGHDYVLAEK (UniProt Q8N3C0)	0.122
ASAP1_Q9ULH1_219_LFQLQMCEYLIK (UniProt Q9ULH1)	0.331
ASCC3_Q8N3C0_1343_AYEALYNFSHFNPVQTQIFHTLYHTDCNVLLGAPTGSGK (UniProt Q8N3C0)	0.319
ARSB_P15848_405_IELLHNIDPNFVDSSPCPR (UniProt P15848)	-0.482
ATAD2B_Q9ULI0_53_AASCPAAK (UniProt Q9ULI0)	-0.45
ATP2B1_P20020_463_HLDACETMGNATAICSDK (UniProt P20020)	0.0416
ATP6V1H_Q9UI12_73_QEMLQTEGSQCAK (UniProt Q9UI12)	-0.0995
ATG7_O95352_358_CLLLGAGTLGCNVAR (UniProt O95352)	-0.0827
ATP2A1_O14983_349_SLPSVETLGCTSVICSDK (UniProt O14983)	-0.0742
ASAP1_Q9ULH1_652_QTALGNTVLHYCSMYSKPECLK (UniProt Q9ULH1)	-0.0357
ATRX_P46100_1575_LKPHQVDGVQFMWDCCCESVKK (UniProt P46100)	-0.666
ATAD2_Q6PL18_484_ALANECSQGDKR (UniProt Q6PL18)	-0.0487
